Measured values as given in EP0180615B1, “NOVEL ATRIAL NATRIURETIC/VASODILATOR POLYPEPTIDES” (priority 1984, dated 1995).
Part of at least one peptide drawing is inferred or uncertain, most often the ends. Positions of bridges follow the written chain, without caps; N, C: chain ends. Residues, ends and D or L forms follow the SMILES beside them.

Experiments:
[1] = test system: histamine-contracted aortic rings; assay: relaxation of histamine-precontracted rabbit thoracic aortic rings; conditions: rings precontracted with 5 X 10^-6 M histamine; cumulative addition (Figure 8)
[2] = test system: cultured bovine aortic smooth muscle cells; assay: cyclic GMP accumulation in cultured aortic smooth muscle cells; format: cell-based; conditions: dose-response, % of maximal cyclic GMP increase (Figure 11A)
From the text: (§1) Since the agonistic action of ANVP in vascular smooth muscle not only results from binding to specific receptors, but is also associated with increases in cyclic GMP, the effects of ANVPs and analogs on cyclic GMP accumulation were examined using the same cultured cells. […] In Figure 11A & B, the relative activities of ANVP and analogs on cyclic GMP accumulation in aortic smooth muscle and endothelial cells are shown. The data is plotted in a dose-response relationship (log dose vs % of maximal cyclic GMP increases).

[3] = test system: cultured bovine aortic endothelial cells; assay: cyclic GMP accumulation in cultured aortic endothelial cells; format: cell-based; conditions: dose-response, % of maximal cyclic GMP increase (Figure 11B)
From the text: as §1

## CC[C@H](C)[C@@H]1NC(=O)[C@H](CCCNC(=N)N)NC(=O)[C@H](CC(=O)O)NC(=O)[C@H]([C@@H](C)CC)NC(=O)[C@H](CCCNC(=N)N)NC(=O)CNC(=O)CNC(=O)[C@H](Cc2ccccc2)NC(=O)[C@@H](NC(=O)[C@H](CO)NC(=O)[C@@H](N)CO)CSSC[C@@H](C(=O)N[C@@H](CC(N)=O)C(=O)N[C@@H](CO)C(=O)N[C@@H](Cc2ccccc2)C(=O)N[C@@H](CCCNC(=N)N)C(=O)N[C@@H](Cc2ccc(O)cc2)C(=O)O)NC(=O)CNC(=O)[C@H](CC(C)C)NC(=O)CNC(=O)[C@H](CO)NC(=O)[C@H](CCC(N)=O)NC(=O)[C@H](C)NC(=O)CNC1=O [rANVP(127-150), reference compound] (H-SSCFGGRIDRIGAQSGLGCNSFRY-OH; disulfide 3-19)
[1]
  ability to relax histamine-contracted aortic rings (relative potency): significantly less potent
[2]
  rank order of potency, cyclic GMP accumulation: hANVP(127-151) > rANVP(127-150)
[3]
  rank order of potency, cyclic GMP accumulation: hANVP(127-151) > rANVP(127-150)
